Laboratory results as given in publication PMC3694890.
No constants are given. Whether binding was seen depends on the method and setting. Some entries that bind do so weakly or less than the wild type. For some of these results: Sequences can lack the tags named with a protein.

Amino acid sequences for entries named in this document (tags omitted). A change or cut given only in a name is not applied to a line headed by its entry.
UniProt O43561: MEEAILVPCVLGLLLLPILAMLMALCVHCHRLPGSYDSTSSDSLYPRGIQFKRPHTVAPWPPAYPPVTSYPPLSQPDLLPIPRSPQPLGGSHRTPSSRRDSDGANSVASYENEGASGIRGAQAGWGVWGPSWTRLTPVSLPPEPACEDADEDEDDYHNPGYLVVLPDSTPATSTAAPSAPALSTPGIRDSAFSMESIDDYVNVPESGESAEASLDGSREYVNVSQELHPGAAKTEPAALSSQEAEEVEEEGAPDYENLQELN
UniProt P35568: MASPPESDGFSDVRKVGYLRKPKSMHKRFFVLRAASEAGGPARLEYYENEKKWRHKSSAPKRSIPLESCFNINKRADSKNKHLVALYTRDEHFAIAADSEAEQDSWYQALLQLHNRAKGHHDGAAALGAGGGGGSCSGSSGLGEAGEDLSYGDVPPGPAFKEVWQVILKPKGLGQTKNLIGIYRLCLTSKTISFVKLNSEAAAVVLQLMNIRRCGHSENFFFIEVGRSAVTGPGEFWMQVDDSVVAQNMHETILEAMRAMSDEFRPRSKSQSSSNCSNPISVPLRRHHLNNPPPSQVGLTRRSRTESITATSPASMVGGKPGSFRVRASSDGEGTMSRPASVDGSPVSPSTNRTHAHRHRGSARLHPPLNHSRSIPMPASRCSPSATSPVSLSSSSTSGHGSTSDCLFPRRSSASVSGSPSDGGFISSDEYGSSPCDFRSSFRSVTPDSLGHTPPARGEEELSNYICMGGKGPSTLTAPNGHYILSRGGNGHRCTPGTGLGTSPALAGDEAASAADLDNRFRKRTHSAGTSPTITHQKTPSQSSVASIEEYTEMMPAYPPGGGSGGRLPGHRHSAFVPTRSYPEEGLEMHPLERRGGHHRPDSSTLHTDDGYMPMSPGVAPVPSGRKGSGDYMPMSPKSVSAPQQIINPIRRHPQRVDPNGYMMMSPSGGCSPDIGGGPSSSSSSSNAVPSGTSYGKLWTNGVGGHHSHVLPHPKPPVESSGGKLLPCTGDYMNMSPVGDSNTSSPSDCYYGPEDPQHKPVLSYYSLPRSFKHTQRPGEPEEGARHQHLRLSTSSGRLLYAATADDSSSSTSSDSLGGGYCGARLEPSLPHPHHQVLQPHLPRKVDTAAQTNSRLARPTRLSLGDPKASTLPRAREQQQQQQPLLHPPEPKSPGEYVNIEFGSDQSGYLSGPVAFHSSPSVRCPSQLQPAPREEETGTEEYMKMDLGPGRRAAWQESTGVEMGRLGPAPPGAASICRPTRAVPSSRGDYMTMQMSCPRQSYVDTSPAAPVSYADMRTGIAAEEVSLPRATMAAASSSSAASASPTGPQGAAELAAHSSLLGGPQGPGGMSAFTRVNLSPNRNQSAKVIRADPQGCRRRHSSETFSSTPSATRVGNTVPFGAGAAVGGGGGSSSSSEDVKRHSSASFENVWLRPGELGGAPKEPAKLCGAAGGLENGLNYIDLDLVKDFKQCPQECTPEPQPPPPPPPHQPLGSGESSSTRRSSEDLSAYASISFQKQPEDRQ
UniProt P62993: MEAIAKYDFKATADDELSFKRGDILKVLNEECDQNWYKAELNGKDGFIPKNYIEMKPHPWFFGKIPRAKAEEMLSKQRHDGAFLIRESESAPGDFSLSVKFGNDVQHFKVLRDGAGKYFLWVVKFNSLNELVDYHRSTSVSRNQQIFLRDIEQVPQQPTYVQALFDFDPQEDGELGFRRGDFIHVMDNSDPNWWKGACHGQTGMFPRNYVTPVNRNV

Assays:
Assay in all cases: peptide or protein array; total protein of cell lysate (1 mg in 1 mL) of MCF10A, MCF7, T47D or MDA-MB231 over a chip with 160 pY peptide probes (10 replicates, alanine controls), overnight at 4°C; bound GRB2 detected with rabbit anti-GRB2 and Alexa 647 secondary antibody; only the target purified
[1] = molecular target: T1, GSTP1_199 tyrosine phosphopeptide probe (human)
T1 sequence (peptide, phosphotyrosine at the N-terminus (Y199)): YVNLPI

[2] = molecular target: T2, SHIP1_556 tyrosine phosphopeptide probe (human)
T2 sequence (peptide, phosphotyrosine at the N-terminus (Y556)): YMNILR

[3] = molecular target: T3, XPO7_669 tyrosine phosphopeptide probe (human)
T3 sequence (peptide, phosphotyrosine at the N-terminus (Y669)): YTALGR

[4] = molecular target: T4, LAX1_294 tyrosine phosphopeptide probe (human)
T4 sequence (peptide, phosphotyrosine at the N-terminus (Y294)): YENVPA

[5] = molecular target: T5, FLT3_969 tyrosine phosphopeptide probe (human)
T5 sequence (peptide, phosphotyrosine at the N-terminus (Y969)): YQNRRP

[6] = molecular target: T6, IRS1_47 tyrosine phosphopeptide probe (human)
T6 sequence (peptide, phosphotyrosine at the N-terminus (Y47)): YENEKK

[7] = molecular target: T7, NTAL_95 tyrosine phosphopeptide probe (human)
T7 sequence (peptide, phosphotyrosine at the N-terminus (Y95)): YENVLI

[8] = molecular target: T8, TNFL6_258 tyrosine phosphopeptide probe (human)
T8 sequence (peptide, phosphotyrosine at the N-terminus (Y258)): YVNVSE

[9] = molecular target: T9, ETV6_314 tyrosine phosphopeptide probe (human)
T9 sequence (peptide, phosphotyrosine at the N-terminus (Y314)): YMNHIM

[10] = molecular target: T10, LAT_255 tyrosine phosphopeptide probe (human) (UniProt O43561)
T10 sequence (peptide, phosphotyrosine at the N-terminus (Y255)): YENLQE

[11] = molecular target: T11, IRS1_941 tyrosine phosphopeptide probe (human) (UniProt P35568)
T11 sequence (peptide, phosphotyrosine at the N-terminus (Y941)): YMKMDL

[12] = molecular target: T12, PTPRA_798 tyrosine phosphopeptide probe (human)
T12 sequence (peptide, phosphotyrosine at the N-terminus (Y798)): YANFK

[13] = molecular target: T13, SPTAN1_2430 tyrosine phosphopeptide probe (human)
T13 sequence (peptide, phosphotyrosine at the N-terminus (Y2430)): YQNLTR

[14] = molecular target: T14, DYST_959 tyrosine phosphopeptide probe (human)
T14 sequence (peptide, phosphotyrosine at the N-terminus (Y959)): YQNVLT

[15] = molecular target: T15, SOS1_974 tyrosine phosphopeptide probe (human)
T15 sequence (peptide, phosphotyrosine at the N-terminus (Y974)): YQNQPY

[16] = molecular target: T16, PTPN11_546 tyrosine phosphopeptide probe (human)
T16 sequence (peptide, phosphotyrosine at the N-terminus (Y546)): YTNIKY

Measured: binding

GRB2 (endogenous, from cell lysates) (from UniProt P62993 1-217)
binds: all assays above
